Values from PubChem BioAssay AID504774 (Drosophila RNAi Screening Center, 2011).

Aim: 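Genes required for cells to withstand methyl methanesulphonate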 (primary screen)
Cell system: Drosophila Kc167 cells
Knock-down reagent: long dsRNA against Drosophila genes, about 0.25 µg dsRNA per well
Duration: about 6 days: 3 days knock-down, then 3 days with or without MMS
Conditions: methyl methanesulphonate 0.004% (w/v) for 3 days after knock-down
Detection: 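Viability in wells given MMS, read as ATP luminescence, normalised by quantiles plate by plate and averaged across replicates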
Reading the numbers: mean viability with MMS: higher = more surviving cells after MMS
The screen tested about 23,000 reagents; shown is a random part of those that have a named target and a result. 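Values are quantile-normalised luminescence on an arbitrary scale; higher means more cells surviving MMS.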 Reagents against one gene are numbered here. Names joined by + are all predicted targets of the reagent. Further read-outs or replicates are left out here. Reagent sequences are not shown.

no.	gene	reagent	mean viability with MMS
1	CG30091	1	3.44e6
2	Ser	1	3.67e6
3	CG8152	1	3.62e6
4	CG34039	1	3.60e6
5	CG9967	1	3.38e6
6	hpo	1	3.57e6
7	Mmp2	1	3.58e6
8	Mmp2	2	3.97e6
9	Pdh	1	3.46e6
10	CG7656	1	3.51e6
11	alpha-Est4	1	3.57e6
12	CG42512 + CG32573	1	3.57e6
13	CG42512 + CG32573	2	3.77e6
14	CG42512 + CG32573	3	3.36e6
15	Snmp1	1	3.32e6
16	apt	1	3.17e6
17	apt	2	3.17e6
18	Nepl4	1	3.58e6
19	Ythdc1	1	3.80e6
20	Slip1	1	3.54e6
21	Ir7d	1	3.46e6
22	CG15922	1	3.74e6
23	CG5348	1	3.54e6
24	Tim17a1	1	3.65e6
25	Aldh7A1	1	3.48e6
26	CG34409	1	3.54e6
27	CG34409	2	3.55e6
28	scramb2	1	3.53e6

Copied from the listing, 3 entries:
no.	gene	reagent	mean viability with MMS
19	Ythdc1	1	3.80e6
20	Slip1	1	3.54e6
21	Ir7d	1	3.46e6
